For 42 sequences, binding signal results are on record in article PMC7819943, “Rice protein-binding microarrays: a tool to detect cis-acting elements near promoter regions in rice”.

Sequences of proteins named here, by UniProt entry; tags and fusion partners are left off.
UniProt Q0JBA9, entry or part of it: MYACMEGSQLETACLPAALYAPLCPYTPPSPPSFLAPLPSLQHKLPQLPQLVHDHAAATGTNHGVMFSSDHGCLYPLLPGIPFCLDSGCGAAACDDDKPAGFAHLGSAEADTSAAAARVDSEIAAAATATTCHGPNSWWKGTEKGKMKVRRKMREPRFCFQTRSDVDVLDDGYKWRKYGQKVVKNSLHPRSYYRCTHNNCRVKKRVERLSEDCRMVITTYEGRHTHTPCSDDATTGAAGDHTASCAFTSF

Some of the results follow.

The target in this experiment is OsWRKY34 (Oryza sativa, UniProt Q0JBA9 1-250). Description: protein-binding microarray (RPBM); PBS, 2% BSA, 51.3 ng/ul salmon testes DNA, 50 uM zinc acetate, 200 nM TF, 25 C, 1 h; high values mean tight binding. Conditions: protein: recombinant; tags: N-terminal polyhistidine and DsRed monomer fusion (pET32a); label: CyDye5-dUTP incorporated in the synthesized complementary strand; 3' TTTTT single-stranded linker to array surface; dsDNA, one strand shown. An outline of the steps: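 In PBS with 2% BSA, salmon testes DNA and 50 µM zinc acetate, 200 nM protein was incubated on a custom Agilent array at 25 °C for 1 h and then washed off. The array had been made double-stranded by primer extension with Cy5-dUTP and blocked with 2% BSA. The proteins were transcription factors fused N-terminally to polyhistidine and DsRed, expressed in E. coli BL21-CodonPlus and purified on Ni–NTA. The binding signal is per-feature fluorescence intensity (arbitrary units) from an Axon 4000B scanner.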
For “CTGTTGGTATTTTGGTCATTTTACTTAAAAAAAGTTGATTCGGAGTCACCTAGTGCAG”, the binding signal is 8340 fluorescence intensity (a.u.).
The same measure for “CTCCGCCTCCGCTGTTCCGTCTCCGACTTCCCCACCACGACGGAGTCACCTAGTGCAG”: 8960 fluorescence intensity (a.u.); for “CTTCCCAGAAATCGCCTGACCCACCCGCACCGACAACACACGGAGTCACCTAGTGCAG”: 8350 fluorescence intensity (a.u.).
Take “GTGCAGTTGCCAGGTTGTGAACTTATCATGTTGCTCTCTCCGGAGTCACCTAGTGCAG”: the binding signal was 13700 fluorescence intensity (a.u.).
With “TTCGCCGTGTTACTGTAGCTCAAATCTCTAGCTTCCCCAACGGAGTCACCTAGTGCAG” the figure was 9240 fluorescence intensity (a.u.); with “ATCCCACCTACTATCATTGTTAATTTGCAAATTATCCCTTCGGAGTCACCTAGTGCAG”, 9670 fluorescence intensity (a.u.).
With “TCTTGGGCTTGGGCCTTTGCTATTGTATTGGGTTGGGCCTCGGAGTCACCTAGTGCAG” the figure was 8400 fluorescence intensity (a.u.).
With “CCATCTATAGCTGTTAGCCACAATAACGTATTCCCGACAACGGAGTCACCTAGTGCAG” the figure was 9980 fluorescence intensity (a.u.); with “AAAGTGCCGTATTTTTGTGTTTCTGTTGTAGTGGTAATTACGGAGTCACCTAGTGCAG”, 12000 fluorescence intensity (a.u.).
For “AAGAAGTCCACCAACCTCTCATCCGCTAGATCGCCAACCCCGGAGTCACCTAGTGCAG”, the binding signal is 9000 fluorescence intensity (a.u.).
With “ACTATTCATTGATGTTCCTCGCAATTTCGTTGTAAACCACCGGAGTCACCTAGTGCAG” the figure was 11300 fluorescence intensity (a.u.); with “GCCCTCCACACCATCCCGTCGCTATTCTGTTTAGCTTTAACGGAGTCACCTAGTGCAG”, 12900 fluorescence intensity (a.u.).
With “GCGCCGCGTCTGCTTTTGTCATATGATGCACGATTGTGCTCGGAGTCACCTAGTGCAG” the figure was 8260 fluorescence intensity (a.u.); with “TCTTGCATTGACAGCCGCATCCACCCTATATATGAATCAACGGAGTCACCTAGTGCAG”, 8420 fluorescence intensity (a.u.).
With “CATAAACTTCCAACTTTTTTCGTCACATCGTTTCAATTTTCGGAGTCACCTAGTGCAG” the figure was 10500 fluorescence intensity (a.u.).
For the sequence “TGGTGTCTCATAATTCTCTACATGGTATCAAATACTGGTTCGGAGTCACCTAGTGCAG”, the binding signal is 9610 fluorescence intensity (a.u.).
The same measure for “GGTTTTTCTCAGTCGCATTATTGGTCCGATCCGATCCAATCGGAGTCACCTAGTGCAG”: 8260 fluorescence intensity (a.u.); for “TGTTAGTAGTTTATGCATTTATTTTCTTGCACGGAAGAATCGGAGTCACCTAGTGCAG”: 10600 fluorescence intensity (a.u.); for “CTCTACTCAACACATACAACTCACTGTAATTTTGGTATAACGGAGTCACCTAGTGCAG”: 10500 fluorescence intensity (a.u.).
As for “TAGTATTTGGGATTCCGATCGATCTTGTTTCAACGTCATTCGGAGTCACCTAGTGCAG”, the binding signal is 8580 fluorescence intensity (a.u.).
With “GCCCACTCGATCGAAGCACCAACTCGCTCGCTCTCTCGCTCGGAGTCACCTAGTGCAG” the figure was 12000 fluorescence intensity (a.u.); with “CTTTGTTTCGTGTGGTTTATTGATGCAATTCTGTTCCTGTCGGAGTCACCTAGTGCAG”, 10500 fluorescence intensity (a.u.); with “CGATTCTGCTCTGCGGGGAGCCCCGACGACTGGGGCGGGGCGGAGTCACCTAGTGCAG”, 9950 fluorescence intensity (a.u.).
With “GGGGAGGGAGCCGGGCGGGATTCAGCCATGAGGAGGAGGGCGGAGTCACCTAGTGCAG” the figure was 9050 fluorescence intensity (a.u.); with “CTTCCCGCCACCAGTGGCACCTCCATTTTCTCCGGTTTTCCGGAGTCACCTAGTGCAG”, 9970 fluorescence intensity (a.u.).
With “TAACCTATCCTGCTGGATTTATATGCAGATTTTTTCTCCGCGGAGTCACCTAGTGCAG”, the binding signal is 8110 fluorescence intensity (a.u.).
The same measure for “TTGGGTTGGGAATGGCTTCGTAATAATAGATGAGATTTTTCGGAGTCACCTAGTGCAG”: 8940 fluorescence intensity (a.u.); for “GTTTACATACCCGTTTCAAATTTGAATTTGAATTCAAATACGGAGTCACCTAGTGCAG”: 9410 fluorescence intensity (a.u.); for “GAACAGTACACTCTCTCTTCATTGATCTTGTTGACTGGTGCGGAGTCACCTAGTGCAG”: 9710 fluorescence intensity (a.u.).
With “ATGTCACCTGATCACCTCACCTCACCTCAGAGCATTGGCCCGGAGTCACCTAGTGCAG” the figure was 8260 fluorescence intensity (a.u.).
The same measure for “CTCTCACACCGTGCCATATCCCGAACATCCCTTGATCGAACGGAGTCACCTAGTGCAG”: 9530 fluorescence intensity (a.u.); for “TCTCCATTTTTACCTTTGCATGGCTAATAATATTTCCAACCGGAGTCACCTAGTGCAG”: 10800 fluorescence intensity (a.u.); for “GGGACCCGATTTGGGCGGTATATACCTTACTTCACGTGCACGGAGTCACCTAGTGCAG”: 8920 fluorescence intensity (a.u.).
On to “GAGACTACATGTTAGTATATCATGTTTCTTGCTCTCATTCCGGAGTCACCTAGTGCAG”, for which the binding signal was 8240 fluorescence intensity (a.u.).
“CTTACTTTGACCGCAATTTTGTACATTTTAATGATTATATCGGAGTCACCTAGTGCAG”: the binding signal is 8290 fluorescence intensity (a.u.).
Turning to “TTTTTTTCCCTGTTACCGTTTTTCCAAAATAATGTGTTCCCGGAGTCACCTAGTGCAG”, the binding signal is 8460 fluorescence intensity (a.u.).
The same measure for “TGGAAATCTGTGGTTGTGGAGGTGGATTTTTGCTTCTGCTCGGAGTCACCTAGTGCAG”: 8310 fluorescence intensity (a.u.); for “CTTTCATTTACACACGACTTTTCAGTCACATCGTCTCCAACGGAGTCACCTAGTGCAG”: 8940 fluorescence intensity (a.u.); for “CGGCCGCGCCGCCTATGTAGGCCTCTGGGTCCATTCACACCGGAGTCACCTAGTGCAG”: 9080 fluorescence intensity (a.u.).
With “CCCCGCTGCTTGTCACGCTCTCGTTGGTCGATCACTCCATCGGAGTCACCTAGTGCAG” the figure was 10700 fluorescence intensity (a.u.); with “TGTACGCGCGCGTTCATCTCCTTATATCTTCAAGCTGTCACGGAGTCACCTAGTGCAG”, 9140 fluorescence intensity (a.u.).
The same measure for “ACCGCTACGTTACCTTCTCCTCTCGTGCTCTTTCTCCGCCCGGAGTCACCTAGTGCAG”: 10200 fluorescence intensity (a.u.).
